For one substance, binding results are on record in article PMC5870601.

The chains behind the UniProt entries cited, without tags or fusion partners.
UniProt Q86TM6: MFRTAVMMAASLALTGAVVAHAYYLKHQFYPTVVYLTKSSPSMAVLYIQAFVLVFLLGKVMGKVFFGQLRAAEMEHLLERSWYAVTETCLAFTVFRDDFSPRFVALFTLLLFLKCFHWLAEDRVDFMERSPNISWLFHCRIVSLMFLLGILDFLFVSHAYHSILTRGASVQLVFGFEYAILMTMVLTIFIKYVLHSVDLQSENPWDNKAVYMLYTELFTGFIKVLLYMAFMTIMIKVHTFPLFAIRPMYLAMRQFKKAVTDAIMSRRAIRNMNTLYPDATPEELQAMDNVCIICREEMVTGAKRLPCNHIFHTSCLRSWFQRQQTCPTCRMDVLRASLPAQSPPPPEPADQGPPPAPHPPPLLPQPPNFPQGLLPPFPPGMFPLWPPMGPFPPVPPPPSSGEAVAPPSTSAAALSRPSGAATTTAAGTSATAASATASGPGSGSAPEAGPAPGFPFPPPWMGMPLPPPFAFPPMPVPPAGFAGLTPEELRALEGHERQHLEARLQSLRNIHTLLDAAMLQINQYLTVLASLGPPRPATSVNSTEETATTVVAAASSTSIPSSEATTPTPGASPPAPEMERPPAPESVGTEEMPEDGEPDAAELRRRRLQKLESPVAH
UniProt P05198: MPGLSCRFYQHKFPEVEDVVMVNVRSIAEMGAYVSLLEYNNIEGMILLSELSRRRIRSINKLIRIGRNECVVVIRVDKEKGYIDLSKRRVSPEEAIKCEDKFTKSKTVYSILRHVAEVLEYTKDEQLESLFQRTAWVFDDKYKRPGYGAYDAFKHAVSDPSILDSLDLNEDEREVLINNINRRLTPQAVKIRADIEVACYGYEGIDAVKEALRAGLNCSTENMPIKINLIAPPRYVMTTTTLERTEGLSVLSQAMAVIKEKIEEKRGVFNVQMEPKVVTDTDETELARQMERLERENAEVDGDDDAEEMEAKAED

No constants are given. Whether binding was seen depends on the method and setting. In cells and extracts the contact can be indirect. Some binding calls cover weakened binding; strength is not graded here.

The target in the assay is 3-hydroxy-3-methylglutaryl reductase degradation protein (HRD1) (human (endogenous in HKC-8)) (UniProt Q86TM6). In words: co-IP; HKC-8 lysate (50 mM Tris, 150 mM NaCl, 1 mM EDTA, 0.5% NP-40, 10% glycerol) incubated overnight with anti-HRD1 antibody, anti-eIF2α antibody or control IgG and protein A/G agarose beads; immunoblot with eIF2α antibodies. For orientation: A western blot detects proteins with antibodies after separation by electrophoresis.

On to “eukaryotic initiation factor (eIF2α) (from UniProt P05198 1-315)”, for which the binding result is “binds”.
